Reference: the M2OR odorant receptor database
Positions count from the first letter of the chain named. The list shows a part of the results. Calls are pooled over several reports, among them a noisy single-well screen.

Chains of the proteins cited; added tags and fusions are not shown. Chains listed by the source or under a name are the forms on record and can include a tag or linker.
O11H2, as listed by the source: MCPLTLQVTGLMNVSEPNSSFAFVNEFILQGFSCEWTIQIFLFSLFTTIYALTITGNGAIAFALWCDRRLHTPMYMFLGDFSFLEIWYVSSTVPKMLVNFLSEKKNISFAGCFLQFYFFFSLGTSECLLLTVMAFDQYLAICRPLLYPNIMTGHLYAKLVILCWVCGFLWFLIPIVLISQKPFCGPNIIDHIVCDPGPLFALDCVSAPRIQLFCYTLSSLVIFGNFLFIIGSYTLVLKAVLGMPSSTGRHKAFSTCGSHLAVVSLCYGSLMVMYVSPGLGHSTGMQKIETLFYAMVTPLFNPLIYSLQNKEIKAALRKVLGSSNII

Assays:
Conditions in all cases: stereoisomer not certain
[1] = test system: T1, O11H1
T1 sequence (whole entry): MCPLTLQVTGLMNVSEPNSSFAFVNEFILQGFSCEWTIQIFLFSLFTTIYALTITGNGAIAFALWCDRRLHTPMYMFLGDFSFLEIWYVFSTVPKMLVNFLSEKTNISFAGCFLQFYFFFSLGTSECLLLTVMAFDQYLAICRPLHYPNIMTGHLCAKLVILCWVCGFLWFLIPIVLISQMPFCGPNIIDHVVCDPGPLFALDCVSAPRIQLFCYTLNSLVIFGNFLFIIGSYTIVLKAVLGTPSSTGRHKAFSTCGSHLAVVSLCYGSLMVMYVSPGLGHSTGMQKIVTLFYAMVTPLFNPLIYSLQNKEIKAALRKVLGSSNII
How it was run: (§1)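 Assay methods differ from source to source, frequently being transient luciferase assays in mammalian cell lines. For each receptor–molecule pair, the label responsive (active) applies when the original authors judged the measured signal statistically different from baseline, and non-responsive (inactive) applies otherwise.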

[2] = test system: T2, O11H1; remark: listed apart in the source
T2 sequence (whole entry): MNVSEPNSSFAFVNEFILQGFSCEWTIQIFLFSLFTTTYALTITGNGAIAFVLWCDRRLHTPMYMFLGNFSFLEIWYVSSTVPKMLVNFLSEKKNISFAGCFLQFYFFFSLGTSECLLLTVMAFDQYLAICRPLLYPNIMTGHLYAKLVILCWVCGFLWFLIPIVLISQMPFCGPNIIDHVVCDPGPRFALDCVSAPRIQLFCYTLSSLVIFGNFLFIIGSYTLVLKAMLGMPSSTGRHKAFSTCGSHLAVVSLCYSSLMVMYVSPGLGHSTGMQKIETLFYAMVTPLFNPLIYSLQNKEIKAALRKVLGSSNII
How it was run: as §1

[3] = test system: T3, O11H2
T3 sequence (whole entry): T1 sequence (whole entry) with F90S, T105K, H146L, C156Y, M181K, V192I, N218S, I235L, T243M, V289E
How it was run: as §1

[4] = test system: T4, O11H4
T4 sequence (whole entry): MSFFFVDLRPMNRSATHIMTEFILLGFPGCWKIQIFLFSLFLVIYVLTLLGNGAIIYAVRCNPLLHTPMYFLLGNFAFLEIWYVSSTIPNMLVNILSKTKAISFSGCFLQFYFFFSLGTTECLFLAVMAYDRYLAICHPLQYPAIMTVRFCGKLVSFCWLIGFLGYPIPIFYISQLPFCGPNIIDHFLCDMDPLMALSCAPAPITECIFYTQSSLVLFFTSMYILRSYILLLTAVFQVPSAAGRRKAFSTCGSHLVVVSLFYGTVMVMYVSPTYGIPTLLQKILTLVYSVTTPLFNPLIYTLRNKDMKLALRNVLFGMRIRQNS
How it was run: as §1

[5] = test system: T5, O11L1
T5 sequence (whole entry): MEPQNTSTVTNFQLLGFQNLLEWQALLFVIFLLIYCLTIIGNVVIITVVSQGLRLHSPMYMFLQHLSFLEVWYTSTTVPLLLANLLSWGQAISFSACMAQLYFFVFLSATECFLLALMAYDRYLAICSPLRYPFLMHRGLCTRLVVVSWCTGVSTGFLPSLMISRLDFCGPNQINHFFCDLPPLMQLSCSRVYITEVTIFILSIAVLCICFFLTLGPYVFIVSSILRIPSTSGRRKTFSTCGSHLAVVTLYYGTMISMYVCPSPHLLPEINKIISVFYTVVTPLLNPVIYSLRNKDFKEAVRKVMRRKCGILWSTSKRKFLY
How it was run: as §1

[6] = test system: T6, O12D2
T6 sequence (whole entry): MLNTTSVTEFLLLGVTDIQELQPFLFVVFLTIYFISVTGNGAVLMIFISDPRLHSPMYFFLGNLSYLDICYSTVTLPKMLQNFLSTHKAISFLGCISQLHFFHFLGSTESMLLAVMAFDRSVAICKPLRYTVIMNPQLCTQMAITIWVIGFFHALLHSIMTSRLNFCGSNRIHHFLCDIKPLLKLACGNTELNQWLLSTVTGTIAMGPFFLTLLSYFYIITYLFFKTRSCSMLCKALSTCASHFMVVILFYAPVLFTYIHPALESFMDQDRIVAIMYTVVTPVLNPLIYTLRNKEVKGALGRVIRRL
How it was run: as §1

[7] = test system: T7, O13C3
T7 sequence (whole entry): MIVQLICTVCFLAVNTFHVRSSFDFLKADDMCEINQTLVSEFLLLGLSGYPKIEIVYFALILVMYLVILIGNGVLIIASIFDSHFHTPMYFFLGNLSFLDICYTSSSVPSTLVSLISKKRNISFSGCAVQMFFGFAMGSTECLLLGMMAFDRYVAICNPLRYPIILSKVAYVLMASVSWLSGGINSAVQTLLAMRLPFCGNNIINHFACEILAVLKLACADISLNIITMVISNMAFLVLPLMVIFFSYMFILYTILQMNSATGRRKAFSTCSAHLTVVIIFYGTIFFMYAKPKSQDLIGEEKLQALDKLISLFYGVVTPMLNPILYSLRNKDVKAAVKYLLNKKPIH
How it was run: as §1

[8] = test system: T8, O13C5
T8 sequence (whole entry): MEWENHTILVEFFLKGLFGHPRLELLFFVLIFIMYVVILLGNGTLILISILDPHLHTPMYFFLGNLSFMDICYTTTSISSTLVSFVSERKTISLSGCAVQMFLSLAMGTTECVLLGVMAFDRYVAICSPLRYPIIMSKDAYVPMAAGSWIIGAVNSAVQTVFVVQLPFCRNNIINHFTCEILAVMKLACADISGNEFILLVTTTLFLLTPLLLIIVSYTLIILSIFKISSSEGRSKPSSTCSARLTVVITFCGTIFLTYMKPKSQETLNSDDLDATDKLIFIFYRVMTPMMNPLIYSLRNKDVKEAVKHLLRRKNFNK
How it was run: as §1

[9] = test system: T9, O13C7
T9 sequence (whole entry): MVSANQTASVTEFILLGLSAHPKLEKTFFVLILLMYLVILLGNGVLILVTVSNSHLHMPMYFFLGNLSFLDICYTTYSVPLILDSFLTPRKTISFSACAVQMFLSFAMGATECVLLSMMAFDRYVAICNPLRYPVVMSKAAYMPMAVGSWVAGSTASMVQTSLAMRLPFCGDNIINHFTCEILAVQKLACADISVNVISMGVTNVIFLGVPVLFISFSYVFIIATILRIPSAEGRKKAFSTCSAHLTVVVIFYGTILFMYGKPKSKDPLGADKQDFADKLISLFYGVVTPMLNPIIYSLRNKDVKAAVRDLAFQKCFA
How it was run: as §1

[10] = test system: T10, O13C9
T10 sequence (whole entry): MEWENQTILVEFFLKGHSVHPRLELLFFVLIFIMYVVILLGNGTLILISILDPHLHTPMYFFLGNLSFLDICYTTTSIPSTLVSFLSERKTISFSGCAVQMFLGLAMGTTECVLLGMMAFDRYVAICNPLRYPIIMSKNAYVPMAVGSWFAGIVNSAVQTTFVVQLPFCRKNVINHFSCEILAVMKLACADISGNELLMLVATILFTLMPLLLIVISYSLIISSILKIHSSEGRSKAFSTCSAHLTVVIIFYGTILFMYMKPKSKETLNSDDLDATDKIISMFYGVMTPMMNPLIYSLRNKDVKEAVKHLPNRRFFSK
How it was run: as §1

[11] = test system: T11, O13D1
T11 sequence (whole entry): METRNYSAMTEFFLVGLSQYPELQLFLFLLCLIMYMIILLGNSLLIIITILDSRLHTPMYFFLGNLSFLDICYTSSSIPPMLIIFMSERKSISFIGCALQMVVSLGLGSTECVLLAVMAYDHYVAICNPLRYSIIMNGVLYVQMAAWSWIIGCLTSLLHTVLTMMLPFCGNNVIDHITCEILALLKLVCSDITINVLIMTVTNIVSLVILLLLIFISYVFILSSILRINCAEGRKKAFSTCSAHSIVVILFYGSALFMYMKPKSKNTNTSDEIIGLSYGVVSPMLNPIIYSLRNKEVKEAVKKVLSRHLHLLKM
How it was run: as §1

[12] = test system: T12, O13D1; remark: listed apart in the source
T12 sequence (whole entry): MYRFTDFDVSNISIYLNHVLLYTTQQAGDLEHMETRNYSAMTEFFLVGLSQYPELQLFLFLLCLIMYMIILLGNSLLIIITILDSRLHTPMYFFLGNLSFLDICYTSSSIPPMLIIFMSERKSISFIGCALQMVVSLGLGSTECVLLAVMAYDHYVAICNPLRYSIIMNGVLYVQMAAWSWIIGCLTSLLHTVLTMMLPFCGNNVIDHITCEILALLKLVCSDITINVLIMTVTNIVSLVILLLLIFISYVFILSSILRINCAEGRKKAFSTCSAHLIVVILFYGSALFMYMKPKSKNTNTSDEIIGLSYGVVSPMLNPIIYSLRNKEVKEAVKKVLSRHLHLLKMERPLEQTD
How it was run: as §1

[13] = test system: T13, O13F1
T13 sequence (whole entry): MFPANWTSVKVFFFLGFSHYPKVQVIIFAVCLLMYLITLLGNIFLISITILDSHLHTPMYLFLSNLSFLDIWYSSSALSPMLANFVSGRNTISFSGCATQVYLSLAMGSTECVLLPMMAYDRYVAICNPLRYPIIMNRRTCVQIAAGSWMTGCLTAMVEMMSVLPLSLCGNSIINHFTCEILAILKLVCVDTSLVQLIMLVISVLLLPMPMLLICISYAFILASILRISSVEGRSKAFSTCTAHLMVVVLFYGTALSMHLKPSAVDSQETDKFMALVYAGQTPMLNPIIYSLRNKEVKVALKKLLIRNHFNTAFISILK
How it was run: as §1

[14] = test system: T14, O13G1
T14 sequence (whole entry): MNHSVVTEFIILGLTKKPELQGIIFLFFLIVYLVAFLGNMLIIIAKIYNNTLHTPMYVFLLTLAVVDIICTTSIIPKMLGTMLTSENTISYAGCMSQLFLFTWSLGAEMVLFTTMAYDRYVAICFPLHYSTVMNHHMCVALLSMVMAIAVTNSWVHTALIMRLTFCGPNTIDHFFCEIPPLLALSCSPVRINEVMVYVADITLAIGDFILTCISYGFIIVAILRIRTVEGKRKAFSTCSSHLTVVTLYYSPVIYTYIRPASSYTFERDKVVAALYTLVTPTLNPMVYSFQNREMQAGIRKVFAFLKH
How it was run: as §1

[15] = test system: T15, O13J1
T15 sequence (whole entry): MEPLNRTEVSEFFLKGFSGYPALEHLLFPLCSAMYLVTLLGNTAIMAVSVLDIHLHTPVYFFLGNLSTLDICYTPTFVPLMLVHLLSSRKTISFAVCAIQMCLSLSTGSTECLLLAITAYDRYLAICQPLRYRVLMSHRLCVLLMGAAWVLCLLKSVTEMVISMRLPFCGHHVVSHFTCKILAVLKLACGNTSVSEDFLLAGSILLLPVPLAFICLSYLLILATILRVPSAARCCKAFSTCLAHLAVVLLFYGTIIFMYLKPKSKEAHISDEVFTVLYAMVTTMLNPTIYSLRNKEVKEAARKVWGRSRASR
How it was run: as §1

Row | SMILES | odorant receptor agonist call [1] | odorant receptor agonist call [2] | odorant receptor agonist call [3] | odorant receptor agonist call [4] | odorant receptor agonist call [5] | odorant receptor agonist call [6] | odorant receptor agonist call [7] | odorant receptor agonist call [8] | odorant receptor agonist call [9] | odorant receptor agonist call [10] | odorant receptor agonist call [11] | odorant receptor agonist call [12] | odorant receptor agonist call [13] | odorant receptor agonist call [14] | odorant receptor agonist call [15]
1 | COc1cc(C)ccc1O | inactive | inactive | inactive | inactive | inactive | inactive | inactive | inactive | inactive | inactive | inactive | inactive | inactive | inactive | inactive
2 | CCCCCCOC(=O)CCC | inactive | inactive | inactive | inactive | inactive | inactive | inactive | inactive | inactive | inactive | inactive | inactive | inactive | inactive | inactive
3 | CC(C)(C)c1ccc(CCC=O)cc1 | inactive | active | inactive | inactive | inactive | inactive | inactive | inactive | inactive | inactive | inactive | inactive | inactive | inactive | inactive
4 | CCCCCOC(C)=O | inactive | inactive | inactive | inactive | active | inactive | inactive | inactive | inactive | inactive | inactive | inactive | inactive | inactive | inactive
